PubChem BioAssay AID743121, NCATS, 2013

Purpose: 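Partners whose loss is lethal together with topoisomerase I blockade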 (primary screen)
Cells: MDA-MB-231 cells, a human breast cancer line
Reagents: single siRNA against human genes, 20 nM siRNA (0.8 pmol per well)
Time to read-out: 120 h (drug added 48 h after transfection, read 72 h later)
Conditions: camptothecin 20 nM (about EC30) for 72 h; vehicle 0.1% DMSO in parallel plates
Read-out: 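Cell viability by ATP luminescence (CellTiter-Glo) as % of non-targeting siRNA wells, and the log2 ratio of viability without drug over viability with camptothecin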
Scale: log2 vehicle/camptothecin viability: higher = stronger sensitisation to camptothecin
Rule for the call: 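Each gene scored by redundant siRNA activity (RSA) over its individual siRNA ratios; a gene is called active at p < 0.001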
Shown is one part, drawn at random, of about 26,000 deposited reagents. 167 of them (0.63%) count as active. 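Calls are per gene from RSA p-values that are not deposited; an individual active-marked siRNA can sensitise only weakly.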 Unmarked entries are inactive. Not all columns of the deposit are shown.

log2 vehicle/camptothecin viability, by target gene and reagent
ANG: SID164353334 -0.0129; SID164353335 0.248; SID164353336 0.741; SID164353337 -0.13
LGR5: SID164398366 0.286; SID164398372 0.162; SID164398373 -0.626; SID164398374 -0.11
TRIM69: SID164572046 0.344; SID164572050 -0.447; SID164572055 0.0938; SID164572058 -0.0442
VAT1: SID164411453 -0.0997; SID164411455 -0.342; SID164411456 0.504; SID164411457 -0.0725
CD6: SID164357087 -0.348; SID164357088 -0.12; SID164357090 -0.791; SID164357092 -0.757
ACP6: SID164472593 -0.135; SID164472596 -0.142; SID164472597 -0.465; SID164472599 0.0333
KIF9: SID164501424 0.072; SID164501425 0.059; SID164501427 1.38; SID164501428 0.636

Part of the list above in another layout:
Target gene	PubChem SID	log2 vehicle/camptothecin viability
TRIM69	SID164572055	0.0938
TRIM69	SID164572058	-0.0442
VAT1	SID164411453	-0.0997
VAT1	SID164411455	-0.342
VAT1	SID164411456	0.504
VAT1	SID164411457	-0.0725
CD6	SID164357087	-0.348

Continued:
log2 vehicle/camptothecin viability, by target gene and reagent
EGR1: SID164362880 -0.186; SID164362881 0.16; SID164362882 -0.0738; SID164362883 -0.193
DGKQ: SID164360993 -0.598; SID164360994 -0.105; SID164360995 -0.156; SID164360996 -0.371
KIF11: SID164372983 -0.446; SID164372986 -0.0736; SID164372988 0.0774
ORM1: SID164379064 0.029; SID164379067 1.33; SID164379069 -0.72; SID164379070 -0.146
TPSAB1: SID164392534 -0.183; SID164502925 -0.153; SID164502930 -0.128
FOLR2: SID164365296 -0.336; SID164365297 -0.466; SID164365299 0.956; SID164365300 0.00694
CDK19: SID164445611 0.00214; SID164445612 -0.211; SID164445615 -0.232; SID164445616 -0.22
SAA2: SID164386884 -0.456; SID164386886 0.0166; SID164386887 -0.377; SID164386888 -0.122; SID164386891 -0.0972; SID164386893 -0.146
HSD17B10: SID164368478 -0.0667; SID164368480 -0.0815; SID164368482 -0.434; SID164368483 -0.0669
PAK3: SID164379399 0.308; SID164379401 -0.571; SID164379402 0.147; SID164379403 -0.123
